Reference: the supplement of paper PMC8007513
The list shows a part of the results. Repeats are few or missing, and single values can be far off.

System: Saccharomyces cerevisiae BY4743
Assay: growth (OD600) relative to untreated control; higher = less growth inhibition
Details: compound concentration: 133 uM; 20 h
Protocol: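 NMCCC compounds (133 uM, no IPBC) tested alone against Saccharomyces cerevisiae BY4743 in YPD, 96-well plates, starting OD600 ~0.1. Growth was read as OD600 at 20 h and expressed as % of the untreated control. Single pass.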

SMILES | growth [%]
CC(C)c1cc(C(=O)N2CCN(c3ccccc3F)CC2)cs1 | 97.7
NC(=O)c1cc(Cl)ccc1OCc1nc(-c2ccsc2)no1 | 93.7
CC(NS(=O)(=O)c1ccc(Cl)c(Cl)c1)C(=O)Nc1cccc(C#N)c1 (stereo not given) | 109
CCOc1ccc(N2C(=O)N(CC(=O)NCCC(C)C)c3ccccc3S2(=O)=O)cc1 | 92.9
COc1ccc(C)cc1NC(=O)Nc1nnc(N(CC(C)C)CC(C)C)s1 | 98.9
O=C(c1cc(Cl)ccn1)N1CCOc2ccccc21 | 107
CCOC(=O)\C1=C(/COC(=O)C2=CC=CC=C2C(=O)C3=CC=CS3)NC(=O)NC1 | 109
COc1ccc(S(=O)(=O)Nc2ccccc2Cl)cc1NS(=O)(=O)N1CCCCCC1 | 102
COc1cc(NC(=O)c2cc(S(=O)(=O)N3CCCC3)c(Cl)cc2Cl)ccc1OC(F)F | 100
CC1CN(S(=O)(=O)c2cccc(C(=O)OCCc3ccccc3)c2)CC(C)O1 (stereo not given) | 81
Cc1cc(C)nc(NS(=O)(=O)c2ccc(NC(=O)c3ccccc3OC(C)C)cc2)n1 | 95.2
CN(Cc1ccco1)C(=O)c1ccc(N2CCCS2(=O)=O)cc1 | 119
CC(C)C1=CC=CC(=C1NC(=O)CN(C)\C2=N\[S](=O)(=O)C3=CC=CC=C23)C(C)C | 98.4
CCCNC(=O)c1nn(CC)cc1NC=O | 88.2
COC1=CC=C(CCNC(=O)\C2=C\C3=C(CS2)C(=C(C)S3)C)C=C1OC | 98.2
Cc1cccc(Nc2nnc(SCC(=O)c3ccc[nH]3)s2)c1 | 92.3
Cc1sc(NC(=O)c2cccc(NC(=O)C3CCCO3)c2)c(C#N)c1C (stereo not given) | 90.9
CC1CC(=O)Nc2cc(S(=O)(=O)N(C)C3CCCCC3)ccc2S1 (stereo not given) | 105
CCC1CN(CN2C(=O)C(=O)c3c(Br)cccc32)CCO1 (stereo not given) | 102
COC(=O)c1ccc(CSc2nc(N)c3ccsc3n2)cc1 | 104

SMILES | growth [%]
CCn1nnnc1SCc1cn2cc(Cl)ccc2n1 | 91.4
CC(C)(C)OC(=O)NC1CCN(C(=O)Nc2ccc(Cl)c(C(F)(F)F)c2)CC1 | 97
COc1ccc(N(CCC(N)=O)CC(=O)NC(C)c2ccc3c(c2)OCO3)cc1 (stereo not given) | 107
Oc1cccc2ccc(/C=C/c3ccc(Br)o3)nc12 | 71.2
COC(=O)\C1=C(/N)OC2=CC(=NC(=C2C1C3=CC=CC=C3)O)C (stereo not given) | 90.9
CCOc1cc(C)nn1-c1ccccc1 | 99
CCc1cccc(C)c1NC(=O)Cn1c(C(=O)OC)cc2sccc21 | 83.3
Cl\C1=C(\CCCC1)C(=O)NC2=CC=C3OCOC3=C2 | 97.4
COc1cccc(C(=O)Oc2c(S(=O)(=O)c3ccccc3)c(C)nn2C(C)(C)C)c1OC | 102
Cc1cc(Br)cc(C)c1OCC(=O)Nc1sc2c(c1C(N)=O)CCCC2 | 96
CCc1ccc(NC(=O)CN2C(=O)CSc3ccc(S(=O)(=O)N(C)C)cc32)cc1 | 111
CN(C1=CC=CC=C1)C(=O)\C2=C\C(=N/[S](=O)(=O)N2C)C3=CC=C(C)C=C3 | 103
CS(=O)(=O)c1ccc(-c2cccc(NC(=O)C3CCCO3)c2)nn1 (stereo not given) | 99.2
COC(=O)c1ccc(C(=O)Nc2ccccc2C(=O)NCc2ccccc2)s1 | 94.3
CCCn1c(C)c(C)c(-c2nc3ccccc3[nH]2)c1NC(=O)C(C)C | 108
Cc1cc(C)nc(SCc2nc(-c3ccccc3)no2)n1 | 97
Cc1ccc(-c2csc(NC(=O)C(C)C)c2C(=O)O)c(C)c1 | 101
CCC1=CC=C(NC(=O)CN2\C=C/N(C(=O)C2=O)C3=CC(=CC(=C3)C)C)C=C1 | 89.5
CCC(C)[C@H](N)c1nnc(SCc2ccc(Cl)c(Cl)c2)o1 (stereo not given in full) | 98
Cc1nc(C)c(C(=O)OCC(=O)Nc2sc3c(c2C(N)=O)CCCC3)s1 | 106

Some of the entries so far, as comma-separated lines:
SMILES,growth [%]
Cc1ccc(-c2csc(NC(=O)C(C)C)c2C(=O)O)c(C)c1,101
CCC1=CC=C(NC(=O)CN2\C=C/N(C(=O)C2=O)C3=CC(=CC(=C3)C)C)C=C1,89.5
